Reference: PubChem BioAssay AID1224828 (NIAID, 2016)
Test: 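Regulators linking TLR4 signalling to p65 nuclear translocation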 (primary screen). Cells: mouse RAW264.7 G9 macrophage reporter cells (GFP-p65, Tnf promoter-mCherry). Reagents: siRNA pool against mouse genes, 100 nM. Timing: 2 days siRNA transfection, then 40 min LPS before fixation. Conditions: LPS (Salmonella minnesota R595) at 10 ng/ml. Measurement: 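Imaged p65 nuclear translocation ratio, normalised to the plate median, converted to robust z-scores and averaged across two replicates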. Reading the numbers: p65 translocation robust z-score: higher = more nuclear NF-kappaB p65 after LPS than the plate median; nuclear/cytoplasmic p65 ratio: higher = more nuclear NF-kappaB p65. Call rule: 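Called active when z exceeds 3.3 or falls under -1.56 (median of Tlr4 controls), giving activity score of at least 50; no calls for control wells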. Calls: active = hit (p65 shift raised or lowered); inactive = no clear change.
The whole screen tested about 17,000 reagents; shown is a part drawn at random. 762 of them (4.5%) were called active. 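Active calls include both raised and lowered p65 entry, mostly lowered; wells with fewer than 50 cells lack a z-score.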 The raw values are shown without normalisation. A number with no mark means an inactive call. No sequences are given here.

target | p65 translocation robust z-score | nuclear/cytoplasmic p65 ratio, rep 1 | nuclear/cytoplasmic p65 ratio, rep 2 | low cell count flag
Gtf2f2 | 0.04 | 1.42 | 1.39 | enough cells to score
Map7d1 | -1.02 | 1.36 | 1.75 | enough cells to score
Swi5 | 1.05 | 1.35 | 1.38 | enough cells to score
Mtrr | 1.05 | 1.53 | 1.52 | enough cells to score
4930470P17Rik | – | 1.19 | 1.32 | fewer than 50 cells per well; well left out of scoring
Sprr2b | -1.09 | 1.26 | 1.12 | enough cells to score
Myo3a | 0.48 | 1.8 | 1.41 | enough cells to score
Cavin2 | 0.88 | 1.6 | 1.75 | enough cells to score
Cdk5r1 | 0.51 | 1.74 | 1.47 | enough cells to score
Galr2 | -0.73 | 1.4 | 1.48 | enough cells to score
Crem | -0.6 | 1.53 | 1.64 | enough cells to score
Or51a10 | 2.96 | 1.84 | 1.66 | enough cells to score
Aldh16a1 | – | 1.57 | 1.3 | fewer than 50 cells per well; well left out of scoring
Dnajb11 | 1.9 | 1.73 | 1.6 | enough cells to score
Sall3 | -0.82 | 1.41 | 1.4 | enough cells to score
Rufy2 | 0.09 | 1.42 | 1.24 | enough cells to score
Grin3b | 0.92 | 1.79 | 1.67 | enough cells to score
Irak1 | 2.04 | 2.05 | 1.6 | enough cells to score
Zc3h8 | – | 1.21 | 1.17 | fewer than 50 cells per well; well left out of scoring
Calhm6 | 2.26 | 1.73 | 1.78 | enough cells to score
Hmgn5 | 0.91 | 1.9 | 1.62 | enough cells to score
Etv6 | 0.83 | 1.52 | 1.52 | enough cells to score
Clec10a | -0.59 | 1.84 | 1.28 | enough cells to score
Tmem208 | -0.85 | 1.4 | 1.31 | enough cells to score
Copg2 | -0.28 | 1.67 | 1.59 | enough cells to score
Gcgr | 0.43 | 1.56 | 1.66 | enough cells to score
Sack1f | -1.07 | 1.51 | 1.42 | enough cells to score
Dad1 | -0.43 | 1.45 | 1.27 | enough cells to score
Lrrc25 | -0.98 | 1.53 | 1.43 | enough cells to score
Or2n1d | -2.41 (active) | 1.23 | 1.12 | enough cells to score
Bin1 | -0.15 | 1.55 | 1.63 | enough cells to score
Myocd | -1.01 | 1.41 | 1.22 | enough cells to score
Zpbp | – | 1.23 | 1.27 | fewer than 50 cells per well; well left out of scoring
Gm5087 | 1.47 | 1.71 | 2.13 | enough cells to score
Tbrg3 | 0.44 | 1.35 | 1.3 | enough cells to score
Krt17 | -0.32 | 1.39 | 1.37 | enough cells to score
Adamtsl4 | 1.42 | 1.65 | 1.32 | enough cells to score
Svep1 | -0.63 | 1.27 | 1.17 | enough cells to score
Dnajb9 | 3.47 (active) | 1.97 | 1.77 | enough cells to score
Kcnk18 | 2.47 | 2 | 1.92 | enough cells to score
Ddah2 | -1.77 (active) | 1.29 | 1.32 | enough cells to score
Bend5 | – | 1.39 | 1.21 | fewer than 50 cells per well; well left out of scoring
Wnk3 | -0.74 | 1.58 | 1.27 | enough cells to score
Fn3k | 2.36 | 2.09 | 1.66 | enough cells to score
Ca6 | -1.2 | 1.42 | 1.58 | enough cells to score
Sft2d1 | -0.82 | 1.26 | 1.36 | enough cells to score
Helb | 2.27 | 2.03 | 1.84 | enough cells to score
Cbx1 | 1.21 | 1.64 | 1.53 | enough cells to score
Nefl | -1.39 | 1.24 | 1.18 | enough cells to score
Aoc2 | -0.98 | 1.42 | 1.58 | enough cells to score
F11 | 2.85 | 1.95 | 1.64 | enough cells to score
Zfp691 | – | 1.46 | 1.54 | fewer than 50 cells per well; well left out of scoring
Lcn4 | 1.69 | 1.82 | 1.64 | enough cells to score
Nle1 | -2.19 (active) | 1.23 | 1.23 | enough cells to score
Pabir2 | – | 0.908 | 0.84 | fewer than 50 cells per well; well left out of scoring
H2-DMb2 | 0.35 | 1.45 | 1.45 | enough cells to score
Awat2 | – | 1.53 | 1.71 | fewer than 50 cells per well; well left out of scoring
Sestd1 | – | 1.37 | 1.36 | fewer than 50 cells per well; well left out of scoring
Arhgap24 | 0.38 | 1.63 | 1.59 | enough cells to score
Fbxo43 | -0.24 | 1.27 | 1.24 | enough cells to score
A130050O07Rik | -1.21 | 1.24 | 1.36 | enough cells to score
Usp7 | 0.12 | 1.59 | 1.47 | enough cells to score
Tipin | – | 1.31 | 1.21 | fewer than 50 cells per well; well left out of scoring
Traf3ip2 | 0.11 | 1.67 | 1.65 | enough cells to score
Klra3 | – | 1.47 | 1.06 | fewer than 50 cells per well; well left out of scoring
Ly6g5b | 0.56 | 1.94 | 1.51 | enough cells to score
Or4c115 | 2.17 | 2.01 | 1.87 | enough cells to score
Mims2 | -0.26 | 1.33 | 1.39 | enough cells to score
Cpa3 | 0.04 | 1.49 | 1.89 | enough cells to score
Omp | 0.88 | 1.63 | 1.29 | enough cells to score
Grin2b | 0.5 | 1.47 | 1.47 | enough cells to score
Alb | -0.67 | 1.54 | 1.49 | enough cells to score
Tat | 0.65 | 1.66 | 1.56 | enough cells to score
Stx8 | 0.32 | 1.45 | 1.28 | enough cells to score
Acaa1b | -1.56 | 1.42 | 1.36 | enough cells to score

Quoted from the entries so far for reference:
target | p65 translocation robust z-score | nuclear/cytoplasmic p65 ratio, rep 1 | nuclear/cytoplasmic p65 ratio, rep 2 | low cell count flag
Myo3a | 0.48 | 1.8 | 1.41 | enough cells to score
Cavin2 | 0.88 | 1.6 | 1.75 | enough cells to score
Cdk5r1 | 0.51 | 1.74 | 1.47 | enough cells to score
Galr2 | -0.73 | 1.4 | 1.48 | enough cells to score
Crem | -0.6 | 1.53 | 1.64 | enough cells to score
Or51a10 | 2.96 | 1.84 | 1.66 | enough cells to score
Aldh16a1 | – | 1.57 | 1.3 | fewer than 50 cells per well; well left out of scoring
Dnajb11 | 1.9 | 1.73 | 1.6 | enough cells to score
Sall3 | -0.82 | 1.41 | 1.4 | enough cells to score
Rufy2 | 0.09 | 1.42 | 1.24 | enough cells to score
Grin3b | 0.92 | 1.79 | 1.67 | enough cells to score
